# The supplement of paper PMC10403144
# This is one part of the list.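 Rule for the calls: active = mitochondrial OCR inhibition above 30% at 1 uM; inactive = 30% or less.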 Most values come without repeats; read them as rough.
# Test system: Toxoplasma gondii RH tachyzoites
# Test: inhibition of mitochondrial O2 consumption rate (% inhibition (relative to pre-injection OCR and atovaquone/antimycin A control)); higher = stronger ETC inhibition
# Conditions: 1 µM; injection port (sequential injection order): A
row,Compound,inhibition of mitochondrial O2 consumption rate
1,Cc1cccnc1NC(=O)c1cccc(OCc2c(C)noc2C)c1,inactive: -1.51
2,O=C(NCc1ccco1)N1CCN(Cc2ccc(Cl)s2)CC1,inactive: -0.861
3,Cc1cnc(CCNC(=O)c2cc(-c3ccc(Cl)cc3)cs2)[nH]1,inactive: -1.41
4,CN1CCN(c2cc(-c3ccc(F)cc3)nc(-c3ccncc3)n2)CC1,inactive: -0.0615
5,CC1COC2(CCN(c3nc(=O)c4cc(C(F)(F)F)cc([N+](=O)[O-])c4s3)CC2)O1 (stereo not drawn),inactive: 9.27
6,COc1ccc(-c2cnc3ccc(N4CCCC4)nn23)cc1OC,inactive: 0.0852
7,CCn1cnc2c(Nc3cc(F)cc(F)c3)nc(C#N)nc21,inactive: -3.35
8,COc1cc(-c2cc(-c3ccc(S(C)(=O)=O)cc3)cnc2N)ccc1O,inactive: -5.62
9,COc1ccccc1OCCCCn1c(C2CC2)nc2ccccc21,inactive: 1.56
10,N#Cc1ccc(-c2cnc(N)c(-c3ccc(C(N)=O)cc3)n2)cc1,inactive: -6.08
11,Cc1cc2nc(NC(=O)C(C)(C)C)nc(Cl)c2n1Cc1ccc(Cl)cc1,inactive: 14.8
12,CN1CCN(S(=O)(=O)c2ccc(-c3ccc4c(Nc5ccc6nn[nH]c6c5)ccnc4c3)cc2)CC1,inactive: -7.06
13,COc1cccc(-n2nnnc2S(=O)(=O)Cc2ccccc2)c1,inactive: 4.65
14,CCC(Sc1nc2ccccc2o1)C(=O)Nc1nccs1 (stereo not drawn),inactive: -5.62
15,COc1cccc(CC(=O)N2CCC(n3c(C)nc4ccc(F)cc43)CC2)c1,inactive: -8.21

# Part of the list above, as tab-separated lines:
row	Compound	inhibition of mitochondrial O2 consumption rate
9	COc1ccccc1OCCCCn1c(C2CC2)nc2ccccc21	inactive: 1.56
10	N#Cc1ccc(-c2cnc(N)c(-c3ccc(C(N)=O)cc3)n2)cc1	inactive: -6.08

# Same assay, conditions: 1 µM; injection port (sequential injection order): B
row,Compound,inhibition of mitochondrial O2 consumption rate
1,Cc1cc(C(=O)Nc2ccc(-c3ccccc3)cc2)no1,inactive: -0.431
2,FC(F)(F)c1ccc(N(c2cccnc2)C2CCN(c3ccc(C(F)(F)F)cn3)CC2)cc1,inactive: -12
3,COc1ccc(Cl)cc1NC(=O)CN(C)C(=O)c1cnn(-c2ccccc2)n1,inactive: -1.99
4,C[C@H]1c2cccc(O)c2C(=O)C2=C(O)[C@]3(O)C(=O)C(C(N)=O)=C(O)[C@@H](N(C)C)[C@@H]3[C@@H](O)[C@@H]21,inactive: -0.284
5,Nc1nc(N)c2c3c(sc2n1)CN(Cc1ccccc1)CC3,inactive: 6.74
6,CC[C@H](CO)NCCN[C@H](CC)CO,inactive: -12.9
7,CC(=O)NC[C@@H]1CN(c2ccc(N3CCOCC3)c(F)c2)C(=O)O1,inactive: -8.17
8,O=C(Nc1ccnc(-c2cccnc2)n1)c1cc(C(F)(F)F)cc(C(F)(F)F)c1,inactive: -14.1
9,Nc1ncc(-c2ccc(C(F)(F)F)nc2)cc1-c1ccc(C(F)(F)F)nc1,inactive: -5.64
10,Cc1ccc(S(=O)(=O)N2CCN(C(=O)c3cc(-c4ccccc4)[nH]n3)CC2)cc1,inactive: 0.13
11,Cc1ccc2[nH]c3c(NCCN(C)C)ncnc3c2c1,inactive: 4.81
12,CCCCCCCCCCCCCCCCOP(=O)([O-])OCC[N+](C)(C)C,inactive: -9.06

# Same assay, conditions: 1 µM; injection port (sequential injection order): C
row,Compound,inhibition of mitochondrial O2 consumption rate
1,COc1cc(Br)cc2cc(C(=O)Nc3cccc(C(F)(F)F)c3)c(=O)oc12,inactive: -22.1
2,COc1ccc2nc(C)cc(OCC(=O)NCc3ccccc3)c2c1,inactive: -21.7
3,O=C(Nc1ccccc1)c1ccc(-c2cc3ccncc3cc2OC2CCNCC2)s1,inactive: -10.4
4,NC(=O)c1cc(Br)ccc1OCCOc1ccccc1,inactive: -6.41
5,COC(=O)c1cccc2oc(-c3cccc(OC)c3NC(=O)c3cc(-c4ccccc4)on3)nc12,inactive: -21.2
6,O=C(Nc1cnc2ccccc2c1)c1cccc(-n2cnnn2)c1,inactive: -22.9
7,COc1cc(C2=NCCN2)ccc1-n1cc(-c2cccc(C3=NCCN3)c2)nn1,inactive: -14.1
8,CCNC(=O)C(C)Nc1nc(-c2cccnc2)nc2sc(C)c(C)c12 (stereo not drawn),inactive: -5.78
9,Cn1ccnc1CNCCS(=O)(=O)c1cccc(Nc2ccc(-c3cccc(F)c3)cn2)c1,inactive: -24
10,Cc1ccc2[nH]c(C3CCCNC3)c(-c3ccncc3)c2c1 (stereo not drawn),inactive: 1.81
11,CCc1ccc(S(=O)(=O)Nc2cc(CN3CCN(CCC(C)C)CC3)ccc2C)cc1,inactive: -7.98
